Differences between knockout arms are mostly noise.
Tested on: BT-20
Experiment: relative cell number vs DMSO control (72 h) (% of DMSO); higher = less growth inhibition (more cells)
Experimental: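 QMAP-Seq: a pool of 5 breast cancer cell lines (ZR-75-1, SKBR3, HCC-38, MDA-MB-231, BT-20), each carrying 12 doxycycline-inducible Cas9 sgRNA perturbations (11 knockouts plus non-targeting sgNT), was treated with compounds for 72 h at four 10-fold doses (10 nM-10 uM or 1 nM-1 uM range). Barcodes were amplified and sequenced, and cell number was interpolated from 293T spike-in standard curves. The result is expressed as % of the median of DMSO wells. Two biological replicates.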

CCC(C)SSc1ncc[nH]1 (configuration not stated) [PX12]
Conditions	relative cell number
sgRNA knockout: sgATF3, 10 nM	101
sgRNA knockout: sgATF3, 100 nM	103
sgRNA knockout: sgATF3, 1000 nM	94.5
sgRNA knockout: sgATF3, 10000 nM	93.1
sgRNA knockout: sgATF4, 10 nM	116
sgRNA knockout: sgATF4, 100 nM	119
sgRNA knockout: sgATF4, 1000 nM	104
sgRNA knockout: sgATF4, 10000 nM	73
sgRNA knockout: sgATF6, 10 nM	108
sgRNA knockout: sgATF6, 100 nM	101
sgRNA knockout: sgATF6, 1000 nM	87
sgRNA knockout: sgATF6, 10000 nM	92.7
sgRNA knockout: sgATG7, 10 nM	102
sgRNA knockout: sgATG7, 100 nM	102
sgRNA knockout: sgATG7, 1000 nM	110.2
sgRNA knockout: sgATG7, 10000 nM	84.8
sgRNA knockout: sgERN1, 10 nM	105
sgRNA knockout: sgERN1, 100 nM	114
sgRNA knockout: sgERN1, 1000 nM	77.5
sgRNA knockout: sgERN1, 10000 nM	79.5
sgRNA knockout: sgHSF1, 10 nM	112
sgRNA knockout: sgHSF1, 100 nM	101
sgRNA knockout: sgHSF1, 1000 nM	103
sgRNA knockout: sgHSF1, 10000 nM	98.3
sgRNA knockout: sgHSF2, 10 nM	99.2
sgRNA knockout: sgHSF2, 100 nM	88.4
sgRNA knockout: sgHSF2, 1000 nM	97.81
sgRNA knockout: sgHSF2, 10000 nM	106
sgRNA knockout: sgKEAP1, 10 nM	101
sgRNA knockout: sgKEAP1, 100 nM	99.7
sgRNA knockout: sgKEAP1, 1000 nM	88.2
sgRNA knockout: sgKEAP1, 10000 nM	95.2
sgRNA knockout: sgNFE2L2, 10 nM	123
sgRNA knockout: sgNFE2L2, 100 nM	117
sgRNA knockout: sgNFE2L2, 1000 nM	114
sgRNA knockout: sgNFE2L2, 10000 nM	77.8
sgRNA knockout: sgSLC35F2, 10 nM	106
sgRNA knockout: sgSLC35F2, 100 nM	114
sgRNA knockout: sgSLC35F2, 1000 nM	106.7
sgRNA knockout: sgSLC35F2, 10000 nM	88.6
sgRNA knockout: sgXBP1, 10 nM	112
sgRNA knockout: sgXBP1, 100 nM	109
sgRNA knockout: sgXBP1, 1000 nM	92.6
sgRNA knockout: sgXBP1, 10000 nM	95.3

Cc1ncc([N+](=O)[O-])n1CC(O)CCl (configuration not stated) [Ornidazole]
Conditions	relative cell number
sgRNA knockout: sgATF3, 10 nM	92.9
sgRNA knockout: sgATF3, 100 nM	101.4
sgRNA knockout: sgATF3, 1000 nM	94.4
sgRNA knockout: sgATF3, 10000 nM	99.7
sgRNA knockout: sgATF4, 10 nM	87.2
sgRNA knockout: sgATF4, 100 nM	96.06
sgRNA knockout: sgATF4, 1000 nM	118
sgRNA knockout: sgATF4, 10000 nM	104
sgRNA knockout: sgATF6, 10 nM	85.7
sgRNA knockout: sgATF6, 100 nM	86.9
sgRNA knockout: sgATF6, 1000 nM	104
sgRNA knockout: sgATF6, 10000 nM	111
sgRNA knockout: sgATG7, 10 nM	103
sgRNA knockout: sgATG7, 100 nM	103
sgRNA knockout: sgATG7, 1000 nM	110
sgRNA knockout: sgATG7, 10000 nM	86.5
sgRNA knockout: sgERN1, 10 nM	101
sgRNA knockout: sgERN1, 100 nM	100
sgRNA knockout: sgERN1, 1000 nM	102
sgRNA knockout: sgERN1, 10000 nM	79
sgRNA knockout: sgHSF1, 10 nM	84.504
sgRNA knockout: sgHSF1, 100 nM	113
sgRNA knockout: sgHSF1, 1000 nM	113
sgRNA knockout: sgHSF1, 10000 nM	95.5
sgRNA knockout: sgHSF2, 10 nM	94.7
sgRNA knockout: sgHSF2, 100 nM	99.4
sgRNA knockout: sgHSF2, 1000 nM	103
sgRNA knockout: sgHSF2, 10000 nM	101
sgRNA knockout: sgKEAP1, 10 nM	94.39
sgRNA knockout: sgKEAP1, 100 nM	87.8
sgRNA knockout: sgKEAP1, 1000 nM	115
sgRNA knockout: sgKEAP1, 10000 nM	98.4
sgRNA knockout: sgNFE2L2, 10 nM	95.8
sgRNA knockout: sgNFE2L2, 100 nM	112
sgRNA knockout: sgNFE2L2, 1000 nM	109
sgRNA knockout: sgNFE2L2, 10000 nM	100
sgRNA knockout: sgSLC35F2, 10 nM	89
sgRNA knockout: sgSLC35F2, 100 nM	100
sgRNA knockout: sgSLC35F2, 1000 nM	104
sgRNA knockout: sgSLC35F2, 10000 nM	115
sgRNA knockout: sgXBP1, 10 nM	87
sgRNA knockout: sgXBP1, 100 nM	101
sgRNA knockout: sgXBP1, 1000 nM	115
sgRNA knockout: sgXBP1, 10000 nM	106

Nc1nc(OCc2cc(Br)cs2)c2[nH]cnc2n1 [Lomeguatrib]
Conditions	relative cell number
sgRNA knockout: sgATF3, 10 nM	103
sgRNA knockout: sgATF3, 100 nM	108
sgRNA knockout: sgATF3, 1000 nM	88.2
sgRNA knockout: sgATF3, 10000 nM	78.7
sgRNA knockout: sgATF4, 10 nM	102
sgRNA knockout: sgATF4, 100 nM	125
sgRNA knockout: sgATF4, 1000 nM	92
sgRNA knockout: sgATF4, 10000 nM	84.7
sgRNA knockout: sgATF6, 10 nM	106.3
sgRNA knockout: sgATF6, 100 nM	109
sgRNA knockout: sgATF6, 1000 nM	97.5
sgRNA knockout: sgATF6, 10000 nM	84.4
sgRNA knockout: sgATG7, 10 nM	103
sgRNA knockout: sgATG7, 100 nM	115
sgRNA knockout: sgATG7, 1000 nM	97.1
sgRNA knockout: sgATG7, 10000 nM	85.5
sgRNA knockout: sgERN1, 10 nM	110
sgRNA knockout: sgERN1, 100 nM	104
sgRNA knockout: sgERN1, 1000 nM	114
sgRNA knockout: sgERN1, 10000 nM	93
sgRNA knockout: sgHSF1, 10 nM	96.2
sgRNA knockout: sgHSF1, 100 nM	109
sgRNA knockout: sgHSF1, 1000 nM	94.2
sgRNA knockout: sgHSF1, 10000 nM	91.4
sgRNA knockout: sgHSF2, 10 nM	97.1
sgRNA knockout: sgHSF2, 100 nM	113
sgRNA knockout: sgHSF2, 1000 nM	85.8
sgRNA knockout: sgHSF2, 10000 nM	103
sgRNA knockout: sgKEAP1, 10 nM	94.6
sgRNA knockout: sgKEAP1, 100 nM	88.1
sgRNA knockout: sgKEAP1, 1000 nM	93.3
sgRNA knockout: sgKEAP1, 10000 nM	75.2
sgRNA knockout: sgNFE2L2, 10 nM	101
sgRNA knockout: sgNFE2L2, 100 nM	121
sgRNA knockout: sgNFE2L2, 1000 nM	108
sgRNA knockout: sgNFE2L2, 10000 nM	90.2
sgRNA knockout: sgSLC35F2, 10 nM	101
sgRNA knockout: sgSLC35F2, 100 nM	117
sgRNA knockout: sgSLC35F2, 1000 nM	101
sgRNA knockout: sgSLC35F2, 10000 nM	91
sgRNA knockout: sgXBP1, 10 nM	103
sgRNA knockout: sgXBP1, 100 nM	110
sgRNA knockout: sgXBP1, 1000 nM	96.6
sgRNA knockout: sgXBP1, 10000 nM	81.32
